{"sequences": {"note": "Sequences of proteins named here, by UniProt entry; tags and fusion partners are left off. A change or cut given only in a name is not applied to a line headed by its entry.", "UniProt Q01638": "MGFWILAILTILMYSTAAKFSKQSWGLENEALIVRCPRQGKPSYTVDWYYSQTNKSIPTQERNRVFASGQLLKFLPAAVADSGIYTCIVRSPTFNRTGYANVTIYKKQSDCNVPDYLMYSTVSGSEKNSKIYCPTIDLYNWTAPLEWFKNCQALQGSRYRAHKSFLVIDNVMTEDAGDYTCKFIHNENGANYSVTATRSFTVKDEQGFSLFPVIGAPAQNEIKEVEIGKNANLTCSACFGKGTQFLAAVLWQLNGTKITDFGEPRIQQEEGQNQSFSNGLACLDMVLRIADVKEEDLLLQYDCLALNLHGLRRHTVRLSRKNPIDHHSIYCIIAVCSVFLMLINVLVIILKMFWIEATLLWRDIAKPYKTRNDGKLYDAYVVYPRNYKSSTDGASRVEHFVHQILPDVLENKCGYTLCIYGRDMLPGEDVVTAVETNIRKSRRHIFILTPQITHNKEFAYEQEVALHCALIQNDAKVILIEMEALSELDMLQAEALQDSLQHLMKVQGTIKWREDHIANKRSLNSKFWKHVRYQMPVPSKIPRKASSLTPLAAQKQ"}, "source": "PubChem BioAssay AID1259354", "about": "(Paczesny and Yang Labs, IUPUI and University of Michigan, 2018)", "note": "About 1,800 (2.3%) of roughly 78,000 compounds were called active. Inconclusive means that the source gave no clear call. Such entries were picked first, then a sample of the others. No stated cut-off is given here; in the data, active means inhibition above about 30%; inconclusive means mostly about 10% to 28%; inactive means weaker than that. A structure can be active in one record and inactive in another.", "data": [{"target": "Interleukin-1 receptor-like 1 (Homo sapiens) (UniProt Q01638)", "assay": "blocks human ST2 binding to IL-33, primary screen, biochemical, AlphaLISA (AID 1259354)", "details": "AlphaLISA ST2-Fc/biotin-IL-33 interaction, 1 h; at 17 µM, active compounds read high", "values": [{"smiles": "Cc1ccc(C(=O)c2ccc([N+](=O)[O-])cc2)cc1", "inhibition": "inconclusive: 18%"}, {"smiles": "O=C1CC(c2ccccc2)Cc2nc(N3CCCC3)ncc21", "note": "(centres undefined)", "inhibition": "inconclusive: 29%"}, {"smiles": "C=CCn1c(SCC(=O)Nc2ccccc2[N+](=O)[O-])nc2sc(CC)cc2c1=O", "inhibition": "active: 30%"}, {"smiles": "CNc1ncccc1C(=O)N(Cc1c(C)nn(C)c1C)C1CC1", "inhibition": "inconclusive: 17%"}, {"smiles": "CC1=C(C(=O)Nc2ccc(Cl)cc2)C(c2cc(Cl)ccc2OC(F)F)n2ncnc2N1", "note": "(centres undefined)", "inhibition": "inconclusive: 21%"}, {"smiles": "Nc1cc(-c2ccccc2-c2ccccc2)ccn1", "inhibition": "inconclusive: 14%"}, {"smiles": "CC(C)CN1CC(C(=O)N(C)Cc2cc(-c3ccncc3)no2)CC1=O", "note": "(centres undefined)", "inhibition": "inactive"}, {"smiles": "C/C=C(\\C)CN1CCC(CCC(=O)Nc2ccc3c(c2)OCCO3)CC1", "inhibition": "inactive"}, {"smiles": "c1ccc2c(c1)CCN(c1nc3cc4c(cc3s1)OCO4)C2", "inhibition": "inconclusive: 26%"}, {"smiles": "Cc1c(C(=O)N2CCNCC2C(=O)N2CCOCC2)sc2ccccc12", "note": "(centres undefined)", "inhibition": "inconclusive: 21%"}, {"smiles": "O=C1CC(NCc2ccc3c(c2)OCO3)C(=O)N1c1ccccc1", "note": "(centres undefined)", "inhibition": "inactive"}, {"smiles": "COc1ccc(C(=O)N2CCC(C(=O)Nc3cccc(-c4cccc(Cl)c4)c3)CC2)o1", "inhibition": "inconclusive: 13%"}, {"smiles": "COc1ccc(CNC(=O)C[C@@H]2CCNC[C@@H]2Cc2cc(-c3ccc(OC)cc3)on2)cc1", "inhibition": "inconclusive: 21%"}, {"smiles": "CC1(C)CC1(CNC(=O)Cn1ccc(=O)[nH]c1=O)c1ccccc1", "note": "(centres undefined)", "inhibition": "inconclusive: 10%"}, {"smiles": "O=C(c1noc2c1CCCC2)N1CCN(c2ccccc2)CC1", "inhibition": "inconclusive: 12%"}, {"smiles": "CN1CCC(CNC(=O)c2cccc(NC(=O)C3CCCC3)c2)C1", "note": "(centres undefined)", "inhibition": "inconclusive: 21%"}, {"smiles": "CC1(C)Cc2nc(C(C)(C)C)ncc2C(NCc2ccccn2)C1", "note": "(centres undefined)", "inhibition": "inactive"}, {"smiles": "NC(=O)c1cccc(CC2CCN(C(=O)Cc3ccc(F)c(F)c3F)C2)c1", "note": "(centres undefined)", "inhibition": "inconclusive: 20%"}, {"smiles": "Cc1ccc(C(=O)N2C[C@H](N(C)C)C[C@H]2C(=O)O)cc1NC(=O)C(C)(C)C", "inhibition": "inconclusive: 11%"}, {"smiles": "CCOc1ccc(S(=O)(=O)N=C2C=C(Nc3ccccc3)C(=O)c3ccccc32)cc1", "inhibition": "active: 87%"}, {"smiles": "O=C(Cc1ccc(Cl)cc1)Nc1ccc(-c2nc3ccccc3[nH]2)cc1", "inhibition": "inconclusive: 19%"}, {"smiles": "CC(=O)c1cccc(NC(=O)c2cnc3scc(C)n3c2=O)c1", "inhibition": "inactive"}, {"smiles": "Cc1[nH]cnc1CN(C)Cc1nc(-c2cccnc2)no1", "inhibition": "inactive"}, {"smiles": "COc1cccc(C2CC(=O)C3=C(C2)Nc2ccccc2NC3c2cccc(F)c2)c1", "note": "(centres undefined)", "inhibition": "inconclusive: 13%"}, {"smiles": "c1ccc(-c2nnc([C@H]3CCN(Cc4cccs4)C3)o2)cc1", "inhibition": "inconclusive: 10%"}, {"smiles": "CCOc1ccc(Cc2nc(-c3nonc3N)no2)cc1OCC", "inhibition": "inconclusive: 24%"}, {"smiles": "CCc1cc2c(C)cc(=O)oc2cc1OCC(=O)c1ccc(C)cc1", "inhibition": "inactive"}, {"smiles": "CCc1ccc(S(=O)(=O)Nc2cc(Br)c3oc(C)c(C(C)=O)c3c2)cc1", "inhibition": "inactive"}, {"smiles": "CCCOC(=O)C1=C(C)NC2=C(C(=O)C(C(=O)OC)C(C)C2)C1c1coc2ccccc2c1=O", "note": "(centres undefined)", "inhibition": "inconclusive: 16%"}, {"smiles": "COc1ccc(OCC(=O)Nc2cc(Cl)ccc2OCc2cc(=O)n3oc(C)cc3n2)cc1", "inhibition": "inactive"}, {"smiles": "COc1ccc(OC)c(N(CC(=O)NC(C)C)S(=O)(=O)c2ccccc2)c1", "inhibition": "inactive"}, {"smiles": "COc1ccc(N(CC(=O)N2CCOCC2)S(=O)(=O)c2ccc(C)c([N+](=O)[O-])c2)cc1", "inhibition": "inconclusive: 10%"}, {"smiles": "Cc1ccc(/C=C2\\C(=O)NN(c3ccc(Cl)c(Cl)c3)C2=O)s1", "inhibition": "inactive"}, {"smiles": "CC1CCC(NC(=O)C2C3C=CC4(CN(Cc5ccccc5Cl)C(=O)C24)O3)CC1", "note": "(centres undefined)", "inhibition": "inconclusive: 10%"}, {"smiles": "O=C(O)c1ccc(NC(=O)c2ccccc2Cl)cc1", "inhibition": "inactive"}, {"smiles": "CN1CCN(C(=O)c2ccnc(-c3cc(N)nc4[nH]ccc34)c2)CC1", "inhibition": "active: 30%"}, {"smiles": "CCOc1ccc2c(c1)sc(=NC(=O)c1ccc(S(=O)(=O)N3CCOCC3)cc1)n2C", "inhibition": "inactive"}, {"smiles": "O=C(NC1CCCCC1)c1cc(=O)[nH]c2ccc(S(=O)(=O)N3CCOCC3)cc12", "inhibition": "inactive"}, {"smiles": "COc1ccc(-n2cnnc2CN2CCN(c3ccc(F)cc3)CC2)cc1", "inhibition": "inconclusive: 13%"}, {"smiles": "COc1ccc(-c2ccnc(N[C@H]3CO[C@H]4[C@@H]3OC[C@@H]4NC(=O)Nc3cccc(C#N)c3)n2)cc1", "inhibition": "inconclusive: 16%"}, {"smiles": "CC(=O)NC(=O)c1cc2ccccc2oc1=Nc1cccc(F)c1", "inhibition": "inconclusive: 11%"}, {"smiles": "O=c1c2ccccc2nc(/C=C/c2ccccc2)n1CCCO", "inhibition": "inconclusive: 22%"}, {"smiles": "Cc1cc(C(F)(F)F)c(C#N)c(SCC(=O)O)n1", "inhibition": "inactive"}, {"smiles": "Cc1cc(CC(=O)N2CCCn3nc(C(=O)Nc4ccccc4)cc3C2)on1", "inhibition": "inactive"}, {"smiles": "O=C1CCCc2oc3c(Br)cc(NS(=O)(=O)c4cccc5ccccc45)cc3c21", "inhibition": "inactive"}, {"smiles": "O=C(NC1CCCCC1)c1cc2cc3ccc(Cl)cc3nc2o1", "inhibition": "active: 43%"}, {"smiles": "CN(C)S(=O)(=O)c1ccc(C(=O)N2CCOCC2)cc1", "inhibition": "inconclusive: 10%"}, {"smiles": "O=C(c1cccc(F)c1)N1CCN=C1SCc1ccc(Cl)cc1", "inhibition": "inconclusive: 13%"}, {"smiles": "COCc1cc(CN2CCCC(Nc3ccc(OC)c(OC)c3)C2)ccc1OC", "note": "(centres undefined)", "inhibition": "inconclusive: 12%"}, {"smiles": "CC1=C(C(=O)Nc2ccc(C)cc2C)C(c2cccs2)n2c(nc3ccccc32)N1", "note": "(centres undefined)", "inhibition": "inconclusive: 10%"}, {"smiles": "COC(=O)C1=C(C)NC(C)=C(C(=O)OCCN(C)Cc2ccccc2)C1c1cccc([N+](=O)[O-])c1", "note": "(centres undefined)", "inhibition": "inconclusive: 14%"}, {"smiles": "Cc1cccc(C(=O)Nc2sc3c(c2C(=O)N2CCOCC2)CCC(C)C3)c1", "note": "(centres undefined)", "inhibition": "inconclusive: 10%"}, {"smiles": "Cc1ccncc1-c1ccc(C(C)N2CCCC2)cc1", "note": "(centres undefined)", "inhibition": "inactive"}, {"smiles": "O=C(Nc1ccccc1[N+](=O)[O-])c1cccc(S(=O)(=O)N2CCc3ccccc3C2)c1", "inhibition": "active: 40%"}, {"smiles": "CCOC(=O)C1C(=O)C=C(c2ccc(OC)cc2)CC1c1ccc(C)cc1", "note": "(centres undefined)", "inhibition": "inactive"}, {"smiles": "O=C1c2ccccc2C(=O)N1CN(C(=O)c1ccccc1)c1cccc(F)c1", "inhibition": "inconclusive: 15%"}, {"smiles": "Cc1cc(C(F)(F)F)n2ncc(-c3ccccc3)c2n1", "inhibition": "inconclusive: 29%"}, {"smiles": "O=[N+]([O-])C1=C(Nc2ccc(-c3ccccc3)cc2)CS(=O)(=O)C1", "inhibition": "inconclusive: 13%"}, {"smiles": "O=C(CCC1CCN(Cc2cc3ccccc3s2)CC1)NCc1cccnc1", "inhibition": "inconclusive: 19%"}]}]}
